Results are given in words; binding and its absence hold for the method and conditions named. In cells and extracts the contact can be indirect. Here binding means that the protein was enriched with, or labelled near, the bait; the list need not be complete. A no says only that the protein was not detected with the bait. Where a sequence is shown, tags or fusion partners need not be part of it.

Protein sequences, listed by entry. Tags and fused reporters are not part of them.
UniProt A2AWL7: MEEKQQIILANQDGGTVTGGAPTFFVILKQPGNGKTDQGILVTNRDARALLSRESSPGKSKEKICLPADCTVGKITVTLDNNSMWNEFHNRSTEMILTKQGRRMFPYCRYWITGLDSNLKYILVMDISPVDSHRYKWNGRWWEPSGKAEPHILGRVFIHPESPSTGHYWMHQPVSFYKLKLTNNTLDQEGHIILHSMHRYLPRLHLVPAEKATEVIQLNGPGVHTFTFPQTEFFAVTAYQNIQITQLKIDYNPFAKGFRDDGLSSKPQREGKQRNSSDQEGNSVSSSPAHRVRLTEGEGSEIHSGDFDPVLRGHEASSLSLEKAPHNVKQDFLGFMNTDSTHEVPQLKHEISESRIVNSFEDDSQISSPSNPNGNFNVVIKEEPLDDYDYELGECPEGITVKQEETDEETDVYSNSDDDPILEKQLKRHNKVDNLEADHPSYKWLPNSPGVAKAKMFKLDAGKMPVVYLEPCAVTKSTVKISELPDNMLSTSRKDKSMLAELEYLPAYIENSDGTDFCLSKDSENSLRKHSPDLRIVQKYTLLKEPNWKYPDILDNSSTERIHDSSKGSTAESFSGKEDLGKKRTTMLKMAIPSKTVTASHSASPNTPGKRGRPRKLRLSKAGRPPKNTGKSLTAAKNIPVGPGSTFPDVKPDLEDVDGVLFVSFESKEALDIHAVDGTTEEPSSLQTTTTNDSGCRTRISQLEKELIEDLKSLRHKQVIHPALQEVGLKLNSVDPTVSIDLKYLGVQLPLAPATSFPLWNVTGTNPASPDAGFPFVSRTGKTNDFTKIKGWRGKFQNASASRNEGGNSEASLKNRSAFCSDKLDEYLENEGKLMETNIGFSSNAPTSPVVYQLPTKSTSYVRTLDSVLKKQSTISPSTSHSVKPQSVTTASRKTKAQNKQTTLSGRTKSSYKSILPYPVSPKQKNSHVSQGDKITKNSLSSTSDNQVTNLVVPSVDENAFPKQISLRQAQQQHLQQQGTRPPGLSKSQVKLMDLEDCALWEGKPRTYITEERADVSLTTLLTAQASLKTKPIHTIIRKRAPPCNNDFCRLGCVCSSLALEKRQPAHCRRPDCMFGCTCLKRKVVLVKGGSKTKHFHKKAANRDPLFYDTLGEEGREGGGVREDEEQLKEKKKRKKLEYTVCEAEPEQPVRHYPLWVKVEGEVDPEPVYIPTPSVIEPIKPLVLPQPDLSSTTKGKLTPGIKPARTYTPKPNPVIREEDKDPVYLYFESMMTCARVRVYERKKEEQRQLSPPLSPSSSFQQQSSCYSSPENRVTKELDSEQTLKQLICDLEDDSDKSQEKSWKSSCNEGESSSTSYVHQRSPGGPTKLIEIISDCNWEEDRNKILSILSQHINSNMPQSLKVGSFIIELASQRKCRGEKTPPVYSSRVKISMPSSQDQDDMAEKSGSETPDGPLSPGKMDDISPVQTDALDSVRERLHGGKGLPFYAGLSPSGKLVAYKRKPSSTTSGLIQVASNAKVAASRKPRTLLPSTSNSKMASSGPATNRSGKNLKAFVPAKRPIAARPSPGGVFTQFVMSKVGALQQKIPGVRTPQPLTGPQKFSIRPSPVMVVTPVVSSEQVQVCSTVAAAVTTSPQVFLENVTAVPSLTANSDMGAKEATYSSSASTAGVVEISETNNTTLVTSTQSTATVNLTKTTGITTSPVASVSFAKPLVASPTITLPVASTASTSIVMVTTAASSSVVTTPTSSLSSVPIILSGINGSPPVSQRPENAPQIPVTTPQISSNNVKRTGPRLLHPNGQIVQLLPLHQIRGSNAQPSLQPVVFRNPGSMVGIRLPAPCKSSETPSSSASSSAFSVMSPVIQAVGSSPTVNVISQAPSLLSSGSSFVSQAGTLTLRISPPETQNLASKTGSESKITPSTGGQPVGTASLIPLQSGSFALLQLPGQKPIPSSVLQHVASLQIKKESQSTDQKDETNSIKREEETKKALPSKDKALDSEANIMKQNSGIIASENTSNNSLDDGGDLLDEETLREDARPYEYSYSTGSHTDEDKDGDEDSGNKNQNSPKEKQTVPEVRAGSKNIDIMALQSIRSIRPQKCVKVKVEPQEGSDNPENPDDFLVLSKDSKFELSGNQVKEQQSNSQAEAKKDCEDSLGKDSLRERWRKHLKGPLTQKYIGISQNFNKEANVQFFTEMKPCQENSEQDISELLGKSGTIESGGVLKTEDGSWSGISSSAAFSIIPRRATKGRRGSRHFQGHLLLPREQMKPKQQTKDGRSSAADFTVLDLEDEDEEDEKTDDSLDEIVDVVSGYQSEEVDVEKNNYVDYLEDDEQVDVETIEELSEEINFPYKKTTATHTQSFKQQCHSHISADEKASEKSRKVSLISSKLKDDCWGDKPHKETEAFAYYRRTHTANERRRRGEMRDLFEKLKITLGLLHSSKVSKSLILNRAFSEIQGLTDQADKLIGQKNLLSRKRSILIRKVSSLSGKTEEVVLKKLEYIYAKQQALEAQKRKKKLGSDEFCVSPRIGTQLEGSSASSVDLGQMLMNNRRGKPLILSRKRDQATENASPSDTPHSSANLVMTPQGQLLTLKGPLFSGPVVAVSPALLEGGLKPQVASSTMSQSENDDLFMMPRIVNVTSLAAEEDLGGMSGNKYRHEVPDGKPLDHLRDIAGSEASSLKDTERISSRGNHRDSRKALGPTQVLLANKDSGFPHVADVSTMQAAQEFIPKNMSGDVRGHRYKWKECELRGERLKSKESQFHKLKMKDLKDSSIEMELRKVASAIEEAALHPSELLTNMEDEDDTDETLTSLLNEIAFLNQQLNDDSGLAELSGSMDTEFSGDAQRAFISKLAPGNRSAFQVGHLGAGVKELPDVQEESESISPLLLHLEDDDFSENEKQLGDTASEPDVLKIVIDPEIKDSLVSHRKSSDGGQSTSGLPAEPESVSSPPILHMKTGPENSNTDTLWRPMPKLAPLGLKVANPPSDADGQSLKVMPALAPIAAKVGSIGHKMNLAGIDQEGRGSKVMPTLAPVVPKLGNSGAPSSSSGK
UniProt Q9CQJ4: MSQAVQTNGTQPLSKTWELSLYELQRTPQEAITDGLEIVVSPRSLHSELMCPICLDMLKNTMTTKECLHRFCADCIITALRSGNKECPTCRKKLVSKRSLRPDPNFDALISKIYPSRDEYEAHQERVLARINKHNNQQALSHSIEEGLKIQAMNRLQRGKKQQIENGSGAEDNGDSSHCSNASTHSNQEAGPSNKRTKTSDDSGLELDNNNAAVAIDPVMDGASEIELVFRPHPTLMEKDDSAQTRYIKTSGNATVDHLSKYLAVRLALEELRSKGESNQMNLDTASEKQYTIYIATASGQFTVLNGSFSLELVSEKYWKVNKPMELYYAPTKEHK
UniProt P59178: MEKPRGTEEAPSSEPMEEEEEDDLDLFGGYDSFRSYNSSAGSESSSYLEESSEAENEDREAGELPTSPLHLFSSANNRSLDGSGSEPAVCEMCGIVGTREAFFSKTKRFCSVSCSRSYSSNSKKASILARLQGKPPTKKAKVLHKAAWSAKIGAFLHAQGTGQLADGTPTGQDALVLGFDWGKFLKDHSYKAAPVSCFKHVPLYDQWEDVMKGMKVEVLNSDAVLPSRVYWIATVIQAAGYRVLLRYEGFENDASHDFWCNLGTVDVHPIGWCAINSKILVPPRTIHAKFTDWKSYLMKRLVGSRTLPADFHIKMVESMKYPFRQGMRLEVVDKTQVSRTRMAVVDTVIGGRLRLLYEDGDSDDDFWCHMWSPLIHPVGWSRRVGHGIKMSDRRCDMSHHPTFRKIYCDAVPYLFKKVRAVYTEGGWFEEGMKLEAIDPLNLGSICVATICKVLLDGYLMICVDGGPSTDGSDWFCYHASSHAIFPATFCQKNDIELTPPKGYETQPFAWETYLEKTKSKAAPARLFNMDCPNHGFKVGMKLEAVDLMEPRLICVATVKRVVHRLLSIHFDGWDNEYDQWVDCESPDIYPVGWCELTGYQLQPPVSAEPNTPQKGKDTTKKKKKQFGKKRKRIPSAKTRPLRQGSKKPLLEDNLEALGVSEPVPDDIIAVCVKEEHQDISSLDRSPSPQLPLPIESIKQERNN
UniProt Q8VDS3: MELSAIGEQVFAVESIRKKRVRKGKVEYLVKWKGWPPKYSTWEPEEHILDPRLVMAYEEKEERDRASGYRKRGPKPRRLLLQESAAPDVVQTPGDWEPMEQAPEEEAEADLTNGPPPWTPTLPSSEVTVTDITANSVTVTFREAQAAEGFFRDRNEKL

T1: CBX6-3×FLAG (mouse) (UniProt Q9DBY5)
T1 sequence: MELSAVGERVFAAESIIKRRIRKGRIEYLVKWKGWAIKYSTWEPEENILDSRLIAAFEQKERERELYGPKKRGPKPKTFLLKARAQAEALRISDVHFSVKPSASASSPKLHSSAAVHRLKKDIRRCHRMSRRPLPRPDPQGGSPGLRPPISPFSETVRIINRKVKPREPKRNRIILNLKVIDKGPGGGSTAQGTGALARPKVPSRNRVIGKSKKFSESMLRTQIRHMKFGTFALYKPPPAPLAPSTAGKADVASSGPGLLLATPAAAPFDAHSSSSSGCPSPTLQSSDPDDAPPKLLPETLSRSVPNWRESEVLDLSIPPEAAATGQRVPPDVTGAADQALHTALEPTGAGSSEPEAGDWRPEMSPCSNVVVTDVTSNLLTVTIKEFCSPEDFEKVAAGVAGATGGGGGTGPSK

B1: PCGF6 (protein, UniProt Q99NA9 1-353)
chain: MDEAETDATENKRASEAKRASAMPPPPPPPPPISPPALIPAPAAGEEGPASLGQAGAAGCSRSRPPALEPERSLGRLRGRFEDYDEELEEEEEMEEEEEEEEEMSHFSLRLESGRADSEDEEERLINLVELTPYILCSICKGYLIDATTITECLHTFCKSCIVRHFYYSNRCPKCNIVVHQTQPLYNIRLDRQLQDIVYKLVINLEEREKKQMHDFYKERGLEVPKPAAPQPVPSSKGKTKKVLESVFRIPPELDMSLLLEFIGANEDTGHFKPLEKKFVRVSGEATIGHVEKFLRRKMGLDPACQVDIICGDHLLERYQTLREIRRAIGDTAMQDGLLVLHYGLVVSPLKIT
B2: RYBP (protein, UniProt Q8CCI5 1-228)
chain: MTMGDKKSPTRPKRQAKPAADEGFWDCSVCTFRNSAEAFKCSICDVRKGTSTRKPRINSQLVAQQVAQQYATPPPPKKEKKEKVEKPDKEKPEKDKDISPSVTKKNTNKKTKPKSDILKDPPSEANSIQSANATTKTSETNHTSRPRLKNVDRSTAQQLAVTVGNVTVIITDFKEKTRSSSTSSSTVTSSAGSEQQNQSSSGSESTDKGSSRSSTPKGDMSAVNDESF
B3: PHC1 (protein, UniProt Q64028 1-1010)
chain: METESEQNSSSTNGSSSSGASSRPQIAQMSLYERQAVQALQALQRQPNAAQYFHQFMLQQQLSNAQLHSLAAVQQATIAASRQASSPNSSTAQQQTATTQASMNLATTSAAQLISRSQSVSSPSATTLTQSVLLGNTTSPPLNQSQAQMYLRPQLGNLLQVNRTLGRNVPLASQLILMPNGAVAAVQQEVPPAQSPGVHADADQVQNLAVRNQQASAQGPQMPGSTQKAIPPGASPVSGLSQTSSQALAVAQASSGASGQSLNLSQAGGGSGNSLPGSMGPGGGGQAPGGLGQLPSSGLTGGSCPRKGTGVVQPLPAAQTVTVSQGSQTEAESAAAKKAEADGSGQQSVGMNLTRTATPAPSQTLISSATYTQIQPHSLIQQQQQIHLQQKQVVIQQQIAIHHQQQFQHRQSQLLHTATHLQLAQQQQQQQQQQQQQQQQQQQQQQGTTLTAPQPPQVPPTQQVPPSQSQQQAQTLVVQPMLQSSPLTLPPEPTSKPPIPIQSKPPVAPIKPPQLGAAKMSATQQPPPHIPVQVVGTRQPGSAQAQALGLAQLAAAVPTPRGITGAVQPGQAHLASSPPSSQAAPGALQECPPALAAGMTLAPVQGTAHVVKGGPTASSPVVAQVPAAFYMQSVHLPGKAQTLAVKRKAESEEERDDLSALASVLPTKASPAAESPKVIEEKNSLGEKAEPVASLNANPPNSDLVALAPTPSAPPPTLALVSRQMGDSKPPQAIVKPQILTHIIEGFVIQEGAEPFPVGCSQFLKETKKPLQAGLPTGLNESQPSGPLGGDSPSVELEKKANLLKCEYCGKYAPAEQFRGSKRFCSMTCAKRYNVSCSHQFRLKRKKMKEFQEASYARVRRRGPRRSSSDIARAKIQGKRHRGQEDSSRGSDNSSYDEALSPTSPGPLSVRAGHGERDLGNTITTPSTPELQGINPVFLSSNPSQWSVEEVYEFIASLQGCQEIAEEFRSQEIDGQALLLLKEEHLMSAMNIKLGPALKICAKINVLKET

The target in the assay is T1, CBX6-3×FLAG (mouse). Put plainly: affinity purification with mass spectrometry; anti-FLAG beads on extracts of cryomilled CBX6-3×FLAG or empty control ESCs; 20 mM HEPES pH 7.4, 400 mM NaCl, 0.5% Triton X-100; 30 min at 4 °C; three biological replicates; label-free quantitative MS, fold-change ≥2, FDR 0.05.
As for MGA (from UniProt A2AWL7 1-3003), the binding result was “binds”.
In the case of RING1B (from UniProt Q9CQJ4 1-336), the binding result was “binds”.
The entry for L3MBTL2 (from UniProt P59178 1-703) is “binds”.
As to CBX7 (from UniProt Q8VDS3 1-158), the binding entry was “no binding”.
In the case of B1, the binding result was “binds”.
Take B2: the binding result is given as “no binding”.
Regarding B3, the binding entry is “binds”.

These data come from publication PMC5663739.
